Experimental findings from US20020138123A1, “Medical electrical leads and indwelling catheters with enhanced biocompatibility and biostability” (Medtronic, Inc., priority 1998, published 2002) are described below.

This assay has as its system human Mo/MØs. The following applies: AS PEU specimens, Mo/MØs in presence of DSP 0.024 and 240 μg/ml, versus Mo/MØs in standard media.

Molecules are shown by their SMILES.

With `C[C@@H]1C[C@H]2[C@@H]3CCC4=CC(=O)C=C[C@]4(C)[C@@]3(F)[C@@H](O)C[C@]2(C)[C@@]1(O)C(=O)COP(=O)(O)O` [DSP, dexamethasone sodium phosphate], the “hydroperoxide concentration in polymer specimens” value is listed as “significantly lower hydroperoxide concentrations”.
